Source: patent publication US9453026B2, “ACC inhibitors and uses thereof” (Gilead Apollo, Inc., priority 2011, dated 2016)
Some entries share one result that the patent states for a list of compounds.

Tested on: fatty acid synthesis
Assay: In Vivo Fatty Acid Synthesis Study ([C14]-acetate incorporated into rat liver tissue)
Details: oral, FIG. 8 and FIG. 16
Experimental: Compounds of the present invention were also assayed in an In Vivo Fatty Acid Synthesis Study as described by Harwood et al. “Isozyme-nonselective N-Substituted Bipiperidylcarboxamide Acetyl-CoA Carboxylase Inhibitors Reduce Tissue Malonyl-CoA Concentrations, Inhibit Fatty Acid Synthesis, and Increase Fatty Acid Oxidation in Cultured Cells and in Experimental Animals” Journal of Biological Chemistry (2008) 278, 37099-37111. An exemplary procedure for the assay, which measures the amount of radioactive [C^14]-acetate incorporated into rat liver tissue, follows.
Animals given food ad water ad libitum were treated orally at a volume of 1.0 mL/200 g body weight (rat) with either an aqueous solution containing 0.5% methylcellulose (vehicle), or an aqueous solution containing 0.5% methylcellulose plus test compound. One to four hours after compound administration, animals received an intraperitoneal injection of 0.5 mL of [C^14]-acetate (64 uCi/mL; […]). […] The pooled organic fractions were transferred to liquid scintillation vials, dried under nitrogen, dissolved in 7 mL of Aquasol liquid scintillation fluid, and assessed for radioactivity using a Beckman 6500 liquid scintillation counter. Results were recorded as disintigrations per minute (DPM) per milligram of tissue.

`COc1ccccc1[C@H](Cn1c(=O)n(C(C)(C)C(=O)O)c(=O)c2c(C)c(-c3ncco3)sc21)O[C@H]1CC[C@@H](O)CC1` [I-278, 2-[1-[(2R)-2-[(4-hydroxycyclohexyl)oxy]-2-(2-methoxyphenyl)ethyl]-5-methyl-6-(1,3-oxazol-2-yl)-2,4-doxo-1H,2H,3H,4H-thieno[2,3-d]pyrimidin-3-yl]-2-methylpropanoic acid] was tested, and the “ED50, fatty acid synthesis in rats” value was “less than 0.3 mg/Kg body weight”.
